Test system: CHO-7 cells
Type: cell-based, hamster

Row | Compound | [14C]triglyceride content
1 | C#CCOc1ccc(C(=O)c2ccc(C(=O)OCCN(CC)CCOC3CCC4(C)C(=CCC5C6CCC(=O)C6(C)CCC54)C3)cc2)cc1 (centres unmarked) [U-X] | 106 nmol/hr/ mg protein
2 | CCC(CC)CCOC1CCC2(C)C(=CCC3C2CCC2(C)C3CCC2N(C)C)C1 (centres unmarked) [compound A] | 116 nmol/hr/ mg protein

From paper PMC4718804 (eLife, 2015)
